According to paper PMC12218103:
These are yes or no findings as the source states them, for the method shown. In cells and extracts the contact can be indirect. Sequences can lack the tags named with a protein.

Target: T1, Emerald-tagged ERGIC53 (UniProt P49257)
T1 sequence: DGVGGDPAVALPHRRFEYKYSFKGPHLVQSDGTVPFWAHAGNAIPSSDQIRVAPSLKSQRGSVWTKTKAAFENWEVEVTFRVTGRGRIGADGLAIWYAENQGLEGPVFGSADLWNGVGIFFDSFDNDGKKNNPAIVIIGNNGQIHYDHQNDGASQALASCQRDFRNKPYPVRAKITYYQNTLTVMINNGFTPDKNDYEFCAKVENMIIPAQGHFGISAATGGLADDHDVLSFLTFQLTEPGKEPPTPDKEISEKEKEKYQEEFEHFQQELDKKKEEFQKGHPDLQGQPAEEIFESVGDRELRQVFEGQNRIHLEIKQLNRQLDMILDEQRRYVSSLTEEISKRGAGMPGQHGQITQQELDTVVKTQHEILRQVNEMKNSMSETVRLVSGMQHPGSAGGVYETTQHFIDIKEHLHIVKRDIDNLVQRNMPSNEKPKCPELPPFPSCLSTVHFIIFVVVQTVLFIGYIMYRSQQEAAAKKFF
Experiment: co-IP; Emerald-ERGIC53 expressed in HEK293FT cells; lysis in 0.5% NP40 buffer; lysate diluted in 10 mM Tris, 150 mM NaCl, 0.5 mM EDTA and incubated with GFP-trap agarose beads 1 h at 4 °C; endogenous TUG sought in the immunoprecipitates

B1: TUG protein (Tether, containing a UBX domain, for GLUT4), endogenous in HEK293FT cells (protein, UniProt Q9BZE9 1-553)
chain: MAAPAGGGGSAVSVLAPNGRRHTVKVTPSTVLLQVLEDTCRRQDFNPCEYDLKFQRSVLDLSLQWRFANLPNNAKLEMVPASRSREGPENMVRIALQLDDGSRLQDSFCSGQTLWELLSHFPQIRECLQHPGGATPVCVYTRDEVTGEAALRGTTLQSLGLTGGSATIRFVMKCYDPVGKTPGSLGSSASAGQAAASAPLPLESGELSRGDLSRPEDADTSGPCCEHTQEKQSTRAPAAAPFVPFSGGGQRLGGPPGPTRPLTSSSAKLPKSLSSPGGPSKPKKSKSGQDPQQEQEQERERDPQQEQERERPVDREPVDREPVVCHPDLEERLQAWPAELPDEFFELTVDDVRRRLAQLKSERKRLEEAPLVTKAFREAQIKEKLERYPKVALRVLFPDRYVLQGFFRPSETVGDLRDFVRSHLGNPELSFYLFITPPKTVLDDHTQTLFQANLFPAALVHLGAEEPAGVYLEPGLLEHAISPSAADVLVARYMSRAAGSPSPLPAPDPAPKSEPAAEEGALVPPEPIPGTAQPVKRSLGKVPKWLKLPASKR
binding: no binding
